At least one compound was matched to its structure with a doubt left.
Test system: rats
Assay: Cortical spreading depression (CSD) migraine model
Format: in vivo
Experimental: The cortical spreading depression model is utilized to investigate whether treatment with compounds of the present invention affect electrophysiological and hemodynamic events in a rat model of migraine.
Rats were anesthetized with 5% isoflurane (in 70% N2O and 30% O2; flow 300 ml/min) and placed in a stereotactic frame. […] The rectal temperature was maintained at 37.0±1.0° C. with a homeothermic blanket system. The skin was opened by a medial incision and retracted laterally. Three burr holes were drilled under saline cooling over the right hemisphere at the following coordinates (mm from bregma): (1) posterior 4.5, lateral, 2.0 (occipital cortex): KCl application site; (2) posterior 0.5, lateral 2.0 (parietal cortex): LDF recording site; (3) anterior 2, lateral 2 (frontal cortex): DC potential recording site. A laser-Doppler flow probe (Oxyflow, Oxford Optronics, UK) to monitor CBF and an invasive Ag/AgCl electrode for measuring direct current (DC) potential shifts were placed in the parietal and frontal cortex burr holes on the intact dura and in the cortex, respectively. The laser-Doppler flow probe was positioned in an area free of large pial and dural vessels to minimize a large-vessel contribution to the signal. For the DC-potential measurement, a reference electrode was fixed in the neck. Dura overlying the occipital cortex was gently removed and care was taken to avoid bleeding. After surgical preparation, the cortex was allowed to recover for 15 minutes under saline irrigation. […] The number of KCl-induced CSDs was counted for 2 hours. The CBF and DC-potentials were monitored continuously starting from 5 minutes before KCl exposure. […]
The data was collected in Windaq acquisition software (Dataq Instruments, USA) at 20 kHz. The raw data was analyzed in Clampfit program (Axon Instruments, USA). […] The following parameters were analyzed: i) the number, duration and amplitude of DC-potentials, and ii) the number and amplitude of CBF events.

[1] = E1-1.2 at various doses, MK-801 1.25 mg/kg

CC12Cc3ccccc3C(N1)c1ccccc12 (stereo not drawn) [MK-801, reference compound]
number of CBF events vs vehicle (E1-1.2 at 10 mg/kg, MK-801 at 1.25 mg/kg): decreased
amplitude of DC potentials vs vehicle [1]: not statistically different compared to vehicle
duration of DC potentials vs vehicle [1]: increased compared to vehicle

— patent US11136328B2, “3,3-difluoropiperidine carbamate heterocyclic compounds as NR2B NMDA receptor antagonists” (Rugen Holdings (Cayman) Limited, priority 2015, dated 2021)
